System: MCF-7
Assay: MTT anti-proliferative assay, MCF-7
Format: cell-based
Settings: Homo sapiens, MCF7, read-out: IC50 MCF-7

Structure (SMILES): COc1cc2c(c(OC)c1OC)-c1ccc(OC)c(=O)cc1[C@@H](NC(C)=O)CC2 [Colchicine, reference compound]
- IC50: 10.4 ± 0.3 µM
